PubChem BioAssay AID1259254, NCATS, 2017
The whole screen tested about 59,000 reagents; this is an unselected part. Over the whole deposit, about 1,550 (2.6%) are marked active. 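G2 share is only a proxy for re-replication; each gene was hit by three separate siRNAs, and active genes were retested.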 A number with no mark means an inactive call. The numbers tell different reagents against one gene apart. Not all columns of the deposit are shown. Not given: the amount of reagent.

Purpose: 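Finding genes that stop cells copying their DNA twice in one cycle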 (primary screen)
Cell system: human HCT116 colorectal cancer cells
Reagent: single siRNA against human genes
Duration: 3 days
Measurement: 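Nuclei stained with Hoechst and imaged; cell-cycle phase assigned by DNA content; G2 share scaled per plate, non-targeting siRNA 0%, GMNN siRNA 100%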
Direction: G2 robust z-score and G2 cells, % of GMNN control: higher = more G2 cells, more excess DNA replication
Call rule: 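An siRNA counts as active if its G2 robust z-score lies at least 5 MADs above the screen median; here such calls match roughly 38% of GMNN control or more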

{"target": "NMNAT1", "siRNA no.": 1, "G2 robust z-score": -0.804, "G2 cells, % of GMNN control": -2.69}
{"target": "NMNAT1", "siRNA no.": 2, "G2 robust z-score": -0.869, "G2 cells, % of GMNN control": -3.14}
{"target": "NMNAT1", "siRNA no.": 3, "G2 robust z-score": -0.765, "G2 cells, % of GMNN control": -2.42}
{"target": "CNTROB", "siRNA no.": 1, "G2 robust z-score": 0.794, "G2 cells, % of GMNN control": 8.55}
{"target": "CNTROB", "siRNA no.": 2, "G2 robust z-score": 1.57, "G2 cells, % of GMNN control": 14}
{"target": "CNTROB", "siRNA no.": 3, "G2 robust z-score": -1.13, "G2 cells, % of GMNN control": -4.98}
{"target": "SPATA1", "siRNA no.": 1, "G2 robust z-score": -0.912, "G2 cells, % of GMNN control": -3.45}
{"target": "SPATA1", "siRNA no.": 2, "G2 robust z-score": 2.09, "G2 cells, % of GMNN control": 17.7}
{"target": "SPATA1", "siRNA no.": 3, "G2 robust z-score": 0.31, "G2 cells, % of GMNN control": 5.14}
{"target": "SLC22A9", "siRNA no.": 1, "G2 robust z-score": -0.802, "G2 cells, % of GMNN control": -2.67}
{"target": "SLC22A9", "siRNA no.": 2, "G2 robust z-score": 0.249, "G2 cells, % of GMNN control": 4.72}
{"target": "SLC22A9", "siRNA no.": 3, "G2 robust z-score": 1.95, "G2 cells, % of GMNN control": 16.7}
{"target": "SMPD2", "siRNA no.": 1, "G2 robust z-score": -0.805, "G2 cells, % of GMNN control": -2.7}
{"target": "SMPD2", "siRNA no.": 2, "G2 robust z-score": -0.308, "G2 cells, % of GMNN control": 0.8}
{"target": "SMPD2", "siRNA no.": 3, "G2 robust z-score": "7.29 (active)", "G2 cells, % of GMNN control": 54.2}
{"target": "ICAM5", "siRNA no.": 1, "G2 robust z-score": "10.3 (active)", "G2 cells, % of GMNN control": 75.5}
{"target": "ICAM5", "siRNA no.": 2, "G2 robust z-score": -1.14, "G2 cells, % of GMNN control": -5.08}
{"target": "ICAM5", "siRNA no.": 3, "G2 robust z-score": 3.47, "G2 cells, % of GMNN control": 27.4}
{"target": "LINC00977", "siRNA no.": 1, "G2 robust z-score": -0.896, "G2 cells, % of GMNN control": -3.34}
{"target": "LINC00977", "siRNA no.": 2, "G2 robust z-score": 1.92, "G2 cells, % of GMNN control": 16.5}
{"target": "LINC00977", "siRNA no.": 3, "G2 robust z-score": 0.389, "G2 cells, % of GMNN control": 5.7}
{"target": "TOP6BL", "siRNA no.": 1, "G2 robust z-score": 1.38, "G2 cells, % of GMNN control": 12.7}
{"target": "TOP6BL", "siRNA no.": 2, "G2 robust z-score": -0.741, "G2 cells, % of GMNN control": -2.25}
{"target": "TOP6BL", "siRNA no.": 3, "G2 robust z-score": 0.23, "G2 cells, % of GMNN control": 4.59}
